Reference: patent US8563690B2, “Modulation of platelet aggregation” (The Board of Trustees of the University of Illinois, priority 2008, dated 2013)
Part of at least one peptide drawing is inferred or uncertain, most often the ends. Residues, ends and D or L forms follow the SMILES beside them. *: point of attachment. Myristoyl = CCCCCCCCCCCCCC(=O)*

How the values were obtained:
[1] = system: platelet-rich plasma (PRP); test: Clot retraction in human platelet-rich plasma after thrombin; assay type: cell-based
[2] = system: platelets; test: Platelet aggregation in PRP induced by ADP or ristocetin; assay type: cell-based, human

`CCCCCCCCCCCCCC(=O)N[C@@H](CCCNC(=N)N)C(=O)NCC(=O)N[C@H](C(=O)O)[C@@H](C)O` [myr-RGT] (Myristoyl-Arg-Gly-Thr-OH; N-terminus and C-terminus assumed) was tested, and the “effect on clot size” value ([1]; 125 μM) was “markedly reduced clot size”, the “effect on clot size” value ([1]; 250 μM) was “to a greater extent” and the “secondary wave of platelet aggregation” value ([2]; 125 μM) was “significantly affected”. The “secondary wave of platelet aggregation” value ([2]; 250 μM) was “completely abrogated” and the “primary wave of platelet aggregation” value ([2]; ADP 2 μM or ristocetin 1.25 mg/ml, PRP) was “intact”.
